Laboratory results as given in publication PMC11830799.

Biological target: GST fusion protein of the wild-type carboxyl terminus of MAS (GST-MAS-CT)
Assay: pull-down; lysates of COS-7 cells transfected with Flag-MAGI3 pulled down with wild-type GST-MAS-CT or the ETVA mutant, Western blot; only the target purified

B1: Flag-tagged full-length MAGI3 (protein, UniProt Q5TCQ9 1-1481)
chain: MSKTLKKKKHWLSKVQECAVSWAGPPGDFGAEIRGGAERGEFPYLGRLREEPGGGTCCVVSGKAPSPGDVLLEVNGTPVSGLTNRDTLAVIRHFREPIRLKTVKPGKVINKDLRHYLSLQFQKGSIDHKLQQVIRDNLYLRTIPCTTRAPRDGEVPGVDYNFISVEQFKALEESGALLESGTYDGNFYGTPKPPAEPSPFQPDPVDQVLFDNEFDAESQRKRTTSVSKMERMDSSLPEEEEDEDKEAINGSGNAENRERHSESSDWMKTVPSYNQTNSSMDFRNYMMRDETLEPLPKNWEMAYTDTGMIYFIDHNTKTTTWLDPRLCKKAKAPEDCEDGELPYGWEKIEDPQYGTYYVDHLNQKTQFENPVEEAKRKKQLGQVEIGSSKPDMEKSHFTRDPSQLKGVLVRASLKKSTMGFGFTIIGGDRPDEFLQVKNVLKDGPAAQDGKIAPGDVIVDINGNCVLGHTHADVVQMFQLVPVNQYVNLTLCRGYPLPDDSEDPVVDIVAATPVINGQSLTKGETCMNPQDFKPGAMVLEQNGKSGHTLTGDGLNGPSDASEQRVSMASSGSSQPELVTIPLIKGPKGFGFAIADSPTGQKVKMILDSQWCQGLQKGDIIKEIYHQNVQNLTHLQVVEVLKQFPVGADVPLLILRGGPPSPTKTAKMKTDKKENAGSLEAINEPIPQPMPFPPSIIRSGSPKLDPSEVYLKSKTLYEDKPPNTKDLDVFLRKQESGFGFRVLGGDGPDQSIYIGAIIPLGAAEKDGRLRAADELMCIDGIPVKGKSHKQVLDLMTTAARNGHVLLTVRRKIFYGEKQPEDDSSQAFISTQNGSPRLNRAEVPARPAPQEPYDVVLQRKENEGFGFVILTSKNKPPPGVIPHKIGRVIEGSPADRCGKLKVGDHISAVNGQSIVELSHDNIVQLIKDAGVTVTLTVIAEEEHHGPPSGTNSARQSPALQHRPMGQSQANHIPGDRSALEGEIGKDVSTSYRHSWSDHKHLAQPDTAVISVVGSRHNQNLGCYPVELERGPRGFGFSLRGGKEYNMGLFILRLAEDGPAIKDGRIHVGDQIVEINGEPTQGITHTRAIELIQAGGNKVLLLLRPGTGLIPDHGDWDINNPSSSNVIYDEQSPLPPSSHFASIFEESHVPVIEESLRVQICEKAEELKDIVPEKKSTLNENQPEIKHQSLLQKNVSKRDPPSSHGHSNKKNLLKVENGVTRRGRSVSPKKPASQHSEEHLDKIPSPLKNNPKRRPRDQSLSPSKGENKSCQVSTRAGSGQDQCRKSRGRSASPKKQQKIEGSKAPSNAEAKLLEGKSRRIAGYTGSNAEQIPDGKEKSDVIRKDAKQNQLEKSRTRSPEKKIKRMVEKSLPSKMTNKTTSKEVSENEKGKKVTTGETSSSNDKIGENVQLSEKRLKQEPEEKVVSNKTEDHKGKELEAADKNKETGRFKPESSSPVKKTLITPGPWKVPSGNKVTGTIGMAEKRQ
binding: binds

Results are given in words; binding and its absence hold for the method and conditions named. Binding seen in cells or lysates may run through a third protein. A result given as binding can be weak or reduced; the word gives no strength. Tags and fused reporters may be left off the sequences shown.
